Cleaved PARP after 72 h of treatment

Values as published with doi:10.1371/journal.pone.0140310, rounded.

First drug in all entries: BI-D1870, 1000 nM, CC(C)CCN1c2nc(Nc3cc(F)c(O)c(F)c3)ncc2N(C)C(=O)C1C (centres undefined)

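Human melanoma cell lines in 1,536-well plates were treated with a pair of drugs for 72 h, then fixed, stained and imaged. Each value is the cleaved-PARP-positive fraction of nuclei relative to DMSO-treated wells, in %, so that 100 equals the control and higher values mean more apoptosis. Concentrations were fixed for each drug; these are the higher of two levels. The file gives one value for each pair and line, without errors, so small differences may be noise. The marker varies much from line to line, for technical or biological reasons.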 Only some of the drugs and lines screened are listed, without regard to their results. A dash means that no value is listed here.

Partner	UACC-62	RVH-421	SK-MEL-5	501mel	C32	COLO 792	WM3526	RPMI-7951	COLO 800	MEL-HO	WM3619	COLO 829
CC(C)C[C@H](NC(=O)[C@H](Cc1ccccc1)NC(=O)c1cnccn1)B(O)O at 5 nM	321	723	561	737	295	261	1770	2050	135	173	2040	3760
C/C(O)=C(\C#N)C(=O)Nc1cc(Br)ccc1Br at 10000 nM	84.3	90.3	80.4	338	97.2	153	144	41.7	99.9	126	412	74.8
Cc1cc(Nc2cc(N3CCN(C)CC3)nc(Sc3ccc(NC(=O)C4CC4)cc3)n2)n[nH]1 at 30 nM	122	244	126	-	119	124	162	45.9	220	48.5	135	86.8
COc1cc2c(Oc3ccc4[nH]c(C)cc4c3F)ncnc2cc1OCCCN1CCCC1 at 2000 nM	181	135	101	206	101	78.7	91.3	179	214	134	134	48.2
NC(=O)Nc1cc(-c2cccc(F)c2)sc1C(=O)N[C@H]1CCCNC1 at 100 nM	102	112	112	60.0	290	226	230	97.2	144	119	321	190
NC1(c2ccc(-c3nc4ccn5c(=O)[nH]nc5c4cc3-c3ccccc3)cc2)CCC1 at 2000 nM	239	97.0	85.5	134	85.0	142	145	105	192	272	146	106
CN(c1ncccc1CNc1nc(Nc2ccc3c(c2)CC(=O)N3)ncc1C(F)(F)F)S(C)(=O)=O at 400 nM	128	137	60.1	226	105	150	173	187	36.5	55.7	146	167
CS(=O)(=O)c1ccc(C(=O)Nc2ccc(Cl)c(-c3ccccn3)c2)c(Cl)c1 at 5000 nM	154	195	128	96.0	77.5	47.9	114	155	137	312	137	96.3
Cc1ccc(NC(=O)c2cccc(N(C)C)c2)cc1NC(=O)c1ccc(O)cc1 at 10000 nM	262	40.4	103	276	98.9	113	130	209	114	60.0	155	59.9
CC(=O)O[C@@]12CO[C@@H]1C[C@H](O)[C@@]1(C)C(=O)[C@H](O)C3=C(C)[C@@H](OC(=O)[C@H](O)[C@@H](NC(=O)OC(C)(C)C)c4ccccc4)C[C@@](O)([C@@H](OC(=O)c4ccccc4)[C@H]21)C3(C)C at 0.5 nM	492	182	700	135	149	598	2300	270	344	243	212	770
Cc1cc([N+](=O)[O-])ccc1NS(=O)(=O)c1cc(Cl)ccc1Cl at 5000 nM	219	191	276	91.7	89.9	111	158	70.1	101	92.9	110	99.9
C[C@]12O[C@H](C[C@]1(O)CO)n1c3ccccc3c3c4c(c5c6ccccc6n2c5c31)CNC4=O at 20 nM	454	204	70.7	80.8	284	318	211	162	468	197	172	149
O=C1NC(=O)/C(=C/c2ccc(-c3ccc(F)cc3O)o2)S1 at 5000 nM	413	130	93.4	70.0	312	130	117	47.6	203	71.7	140	112
CCCCCCCCCCCC1=C(O)C(=O)C=C(O)C1=O at 6000 nM	136	100	70.7	111	105	167	145	79.4	27.6	126	124	114
COc1ccc(-c2ccc3c(N4CCOCC4)nc(N4C[C@@H](C)O[C@@H](C)C4)nc3n2)cc1CO at 100 nM	63.3	103	188	81.5	179	89.2	126	70.0	72.7	33.8	131	221
Cn1c(=O)n(-c2ccc(C(C)(C)C#N)cc2)c2c3cc(-c4cnc5ccccc5c4)ccc3ncc21 at 20 nM	164	90.5	337	50.7	89.0	99.7	140	74.4	221	60.7	146	101
CO[C@H]1C[C@@H]2CC[C@@H](C)[C@@](O)(O2)C(=O)C(=O)N2CCCC[C@H]2C(=O)O[C@H]([C@H](C)C[C@@H]2CC[C@@H](OCCO)[C@H](OC)C2)CC(=O)[C@H](C)/C=C(\C)[C@@H](O)[C@@H](OC)C(=O)[C@H](C)C[C@H](C)/C=C/C=C/C=C/1C at 100 nM	754	112	192	-	96.4	48.4	297	66.7	64.6	244	159	115
Nc1cccc2c1CN(C1CCC(=O)NC1=O)C2=O (centres undefined) at 5000 nM	85.7	110	62.0	244	115	209	52.6	41.3	127	113	151	71.3
O=c1[nH]nc(Sc2ncc([N+](=O)[O-])s2)n1-c1ccc2c(c1)OCCO2 at 1000 nM	189	160	251	153	211	116	203	191	170	139	150	122
C[C@@H](Oc1cc(-c2cnn(C3CCNCC3)c2)cnc1N)c1c(Cl)ccc(F)c1Cl at 1000 nM	63.2	124	165	130	104	66.9	79.2	174	158	323	122	35.1
COc1ccc(COc2ccc(Cc3cnc(N)nc3N)cc2OC)cc1 at 5000 nM	144	103	55.1	64.4	99.3	46.1	215	84.1	74.6	33.9	150	123
O=C(O)c1ccc(-c2c[nH]c3ncc(-c4ccccc4)cc23)cc1C1CCCC1 at 800 nM	130	90.9	62.5	447	100	93.4	147	208	152	331	146	132
c1cc(-c2cnn3cc(-c4ccc(OCCN5CCCCC5)cc4)cnc23)ccn1 at 2000 nM	218	69.7	151	205	162	47.6	99.9	176	220	70.5	159	85.3
Nc1nc(F)nc2c1ncn2[C@@H]1O[C@H](CO)[C@@H](O)[C@@H]1O at 1000 nM	226	124	1370	459	173	77.9	2400	93.9	121	99.3	117	42.1
Cc1nc(Nc2ncc(C(=O)Nc3c(C)cccc3Cl)s2)cc(N2CCN(CCO)CC2)n1 at 20 nM	619	200	129	271	119	154	181	116	115	234	166	177
C[C@@H](N)c1ccc(C(=O)Nc2ccnc3[nH]ccc23)cc1 at 2000 nM	468	283	257	40.7	88.8	113	205	104	125	55.8	329	103

Repeated from the top, 2 entries:

Partner	UACC-62	RVH-421	SK-MEL-5	501mel	C32	COLO 792	WM3526	RPMI-7951	COLO 800	MEL-HO	WM3619	COLO 829
CC(C)C[C@H](NC(=O)[C@H](Cc1ccccc1)NC(=O)c1cnccn1)B(O)O at 5 nM	321	723	561	737	295	261	1770	2050	135	173	2040	3760
C/C(O)=C(\C#N)C(=O)Nc1cc(Br)ccc1Br at 10000 nM	84.3	90.3	80.4	338	97.2	153	144	41.7	99.9	126	412	74.8